The values that follow come from US5580760, “FUSE binding protein and cDNA therefor” (The United States of America as represented by the …).

For some of these results: Weaker means in comparison with the reference protein, sequence or condition of that experiment. For some of these results: Protein sequences can lack the tags named with them. For some of these results: For at least one entry, the source does not settle the construct or the ends of the probe. For some of these results: No signal at the amounts used counts as a negative.

For series [1], the target named is GST-FBP full length (Homo sapiens) (UniProt Q96AE4). The series can be described thus: competition with a labelled probe. The note with it: 25 ng competitor, purified recombinant protein, protein details: N-terminal GST.
Series [2] addresses FBP (DROME), purified from HL60 cells (Homo sapiens) (UniProt Q96AE4). In words: competition with a labelled probe. The note with it: 25 ng competitor, purified native protein.
Series [3] addresses GST-FBP(145-511) (Homo sapiens) (UniProt Q96AE4). The series can be described thus: EMSA. Particulars: purified recombinant protein, protein details: N-terminal GST (pGEX-2T), E. coli. For orientation: Mobility shift assays separate free from complexed probe on a gel.
The target in series [4] is GST-FBP full length (Homo sapiens) (UniProt Q96AE4). The series can be described thus: EMSA. Particulars: purified recombinant protein; protein details: N-terminal GST; label: 5'-32P.
The target of series [5] is T1, GST-FBP 278-511 insertion mutant 6 insertion GIPR after 343 (Homo sapiens) (UniProt Q96AE4).
T1 sequence: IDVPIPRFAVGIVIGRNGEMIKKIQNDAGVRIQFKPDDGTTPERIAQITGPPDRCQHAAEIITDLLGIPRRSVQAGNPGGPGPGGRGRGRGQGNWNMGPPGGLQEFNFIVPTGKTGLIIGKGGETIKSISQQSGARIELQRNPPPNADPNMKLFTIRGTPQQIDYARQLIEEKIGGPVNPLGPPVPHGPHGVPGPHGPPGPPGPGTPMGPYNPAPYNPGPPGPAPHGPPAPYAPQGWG
In words: EMSA. Particulars: reduced binding; purified recombinant protein; protein details: N-terminal GST, C-terminal KEIEQKVQE; label: 5'-32P.

Series [6] has as its target FBP (DROME), purified from HL60 cells (Homo sapiens) (UniProt Q96AE4). The series can be described thus: EMSA. Particulars: purified native protein; label: 5'-32P.
[7] abbreviates: competes for FUSE binding, variant of FUSE.
[8] abbreviates: no significant competition, variant of FUSE.
Setting [9] is: more divergent oligos did not compete significantly, variant of FUSE.

In the case of “GATCTGACGTCATGACTGACGTCATGACTGACGTCATCA (double strand) [CRE]”, the binding result in series [1] (no significant competition), in series [2] (no significant competition) and in series [3] was “no binding” throughout.
Take “GATCACAAAATAAAAAATCCCGAGGGAATATAG (double strand) [FUSE]”: the binding result in series [4] is reported as “binds”; in series [5], “binds more weakly”; in series [3] (25 mM Tris, 200 mM glycine, 1 mM EDTA, poly(dI:dC), room temperature, label: 5'-32P), “binds”; in series [6] it was “binds”.
As for “GATCACAAAATAAAAAATGGACGCCGAATATAG (double strand) [Mut B]”, the binding result in series [1] (setting [7]) and in series [2] (setting [7]) was “binds” throughout.
“AATTCTCCTCCCCACCTTCCCCACCCTCCCCA (double strand) [CTE]”: the binding result in series [1] (no significant competition), in series [2] (no significant competition) and in series [3] was “no binding” throughout.
Take “GATCACAACTACGTGCTAGGACGCCGAATATAG (double strand) [Mut A]”: the binding result in series [1] (setting [8]) and in series [2] (setting [8]) was “no binding” throughout.
In the case of “GATCACAACTACGTGCTAGGCGAGGGAATATAG (double strand) [Mut C]”, the binding result in series [1] (setting [9]) and in series [2] (setting [9]) was “no binding” in each case.
